Assay results reported in doi:10.1101/2019.12.24.888065.
Results are given in words; binding and its absence hold for the method and conditions named. Binding seen in cells or lysates may run through a third protein. Some entries that bind do so weakly or less than the wild type.

Sequences of proteins named here, by UniProt entry; tags and fusion partners are left off.
UniProt Q9VEZ3: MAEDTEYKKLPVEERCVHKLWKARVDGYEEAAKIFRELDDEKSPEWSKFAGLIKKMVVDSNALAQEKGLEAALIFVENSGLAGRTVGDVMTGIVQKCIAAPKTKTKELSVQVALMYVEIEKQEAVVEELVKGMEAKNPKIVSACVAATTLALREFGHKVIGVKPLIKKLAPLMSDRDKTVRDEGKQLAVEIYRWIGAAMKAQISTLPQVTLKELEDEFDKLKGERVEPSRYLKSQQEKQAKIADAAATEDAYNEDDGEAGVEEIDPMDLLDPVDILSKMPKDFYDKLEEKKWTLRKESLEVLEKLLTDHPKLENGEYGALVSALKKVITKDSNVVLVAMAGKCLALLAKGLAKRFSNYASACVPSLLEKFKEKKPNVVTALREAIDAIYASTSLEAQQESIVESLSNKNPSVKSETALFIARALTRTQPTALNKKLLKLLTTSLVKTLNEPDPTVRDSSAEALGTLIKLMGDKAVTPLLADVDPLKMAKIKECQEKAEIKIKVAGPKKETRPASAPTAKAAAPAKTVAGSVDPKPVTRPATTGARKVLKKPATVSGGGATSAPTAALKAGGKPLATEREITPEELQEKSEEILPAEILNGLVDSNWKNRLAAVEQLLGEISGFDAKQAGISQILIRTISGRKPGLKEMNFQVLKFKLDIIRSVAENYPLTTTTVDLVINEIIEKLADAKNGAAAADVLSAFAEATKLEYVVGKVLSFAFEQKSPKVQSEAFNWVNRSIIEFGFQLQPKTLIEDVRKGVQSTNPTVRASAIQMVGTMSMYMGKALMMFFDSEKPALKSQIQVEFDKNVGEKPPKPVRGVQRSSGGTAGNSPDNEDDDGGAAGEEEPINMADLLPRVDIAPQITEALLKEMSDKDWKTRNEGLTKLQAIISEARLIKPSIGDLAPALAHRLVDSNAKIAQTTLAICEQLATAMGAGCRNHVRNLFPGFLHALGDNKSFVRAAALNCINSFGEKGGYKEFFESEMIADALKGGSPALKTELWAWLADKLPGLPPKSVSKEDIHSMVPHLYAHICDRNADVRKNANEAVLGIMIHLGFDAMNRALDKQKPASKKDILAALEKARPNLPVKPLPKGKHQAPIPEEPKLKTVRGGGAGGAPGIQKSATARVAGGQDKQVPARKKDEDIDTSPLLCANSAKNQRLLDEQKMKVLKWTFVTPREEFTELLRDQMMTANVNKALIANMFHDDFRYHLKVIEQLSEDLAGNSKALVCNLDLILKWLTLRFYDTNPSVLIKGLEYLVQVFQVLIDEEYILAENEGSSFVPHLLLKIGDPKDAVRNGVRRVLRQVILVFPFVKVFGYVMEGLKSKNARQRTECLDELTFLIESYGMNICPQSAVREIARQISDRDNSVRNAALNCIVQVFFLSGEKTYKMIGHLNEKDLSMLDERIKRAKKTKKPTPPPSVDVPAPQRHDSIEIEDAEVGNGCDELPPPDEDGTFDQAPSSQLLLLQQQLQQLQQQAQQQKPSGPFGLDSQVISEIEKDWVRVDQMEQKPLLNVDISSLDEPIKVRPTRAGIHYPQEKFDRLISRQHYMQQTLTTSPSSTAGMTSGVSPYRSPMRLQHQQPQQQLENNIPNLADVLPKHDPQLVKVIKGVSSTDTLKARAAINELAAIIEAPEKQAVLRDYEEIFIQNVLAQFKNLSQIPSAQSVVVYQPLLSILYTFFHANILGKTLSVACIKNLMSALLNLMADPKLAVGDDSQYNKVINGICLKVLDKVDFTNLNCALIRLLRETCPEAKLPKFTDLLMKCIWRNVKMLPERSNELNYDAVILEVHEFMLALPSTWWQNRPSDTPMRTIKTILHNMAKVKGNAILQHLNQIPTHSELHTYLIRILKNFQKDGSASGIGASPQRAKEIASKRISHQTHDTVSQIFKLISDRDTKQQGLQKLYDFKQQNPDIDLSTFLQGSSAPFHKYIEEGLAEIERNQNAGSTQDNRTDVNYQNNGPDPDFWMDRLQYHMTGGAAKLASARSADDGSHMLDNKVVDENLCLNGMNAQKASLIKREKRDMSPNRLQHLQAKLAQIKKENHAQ
UniProt A1ZAU8: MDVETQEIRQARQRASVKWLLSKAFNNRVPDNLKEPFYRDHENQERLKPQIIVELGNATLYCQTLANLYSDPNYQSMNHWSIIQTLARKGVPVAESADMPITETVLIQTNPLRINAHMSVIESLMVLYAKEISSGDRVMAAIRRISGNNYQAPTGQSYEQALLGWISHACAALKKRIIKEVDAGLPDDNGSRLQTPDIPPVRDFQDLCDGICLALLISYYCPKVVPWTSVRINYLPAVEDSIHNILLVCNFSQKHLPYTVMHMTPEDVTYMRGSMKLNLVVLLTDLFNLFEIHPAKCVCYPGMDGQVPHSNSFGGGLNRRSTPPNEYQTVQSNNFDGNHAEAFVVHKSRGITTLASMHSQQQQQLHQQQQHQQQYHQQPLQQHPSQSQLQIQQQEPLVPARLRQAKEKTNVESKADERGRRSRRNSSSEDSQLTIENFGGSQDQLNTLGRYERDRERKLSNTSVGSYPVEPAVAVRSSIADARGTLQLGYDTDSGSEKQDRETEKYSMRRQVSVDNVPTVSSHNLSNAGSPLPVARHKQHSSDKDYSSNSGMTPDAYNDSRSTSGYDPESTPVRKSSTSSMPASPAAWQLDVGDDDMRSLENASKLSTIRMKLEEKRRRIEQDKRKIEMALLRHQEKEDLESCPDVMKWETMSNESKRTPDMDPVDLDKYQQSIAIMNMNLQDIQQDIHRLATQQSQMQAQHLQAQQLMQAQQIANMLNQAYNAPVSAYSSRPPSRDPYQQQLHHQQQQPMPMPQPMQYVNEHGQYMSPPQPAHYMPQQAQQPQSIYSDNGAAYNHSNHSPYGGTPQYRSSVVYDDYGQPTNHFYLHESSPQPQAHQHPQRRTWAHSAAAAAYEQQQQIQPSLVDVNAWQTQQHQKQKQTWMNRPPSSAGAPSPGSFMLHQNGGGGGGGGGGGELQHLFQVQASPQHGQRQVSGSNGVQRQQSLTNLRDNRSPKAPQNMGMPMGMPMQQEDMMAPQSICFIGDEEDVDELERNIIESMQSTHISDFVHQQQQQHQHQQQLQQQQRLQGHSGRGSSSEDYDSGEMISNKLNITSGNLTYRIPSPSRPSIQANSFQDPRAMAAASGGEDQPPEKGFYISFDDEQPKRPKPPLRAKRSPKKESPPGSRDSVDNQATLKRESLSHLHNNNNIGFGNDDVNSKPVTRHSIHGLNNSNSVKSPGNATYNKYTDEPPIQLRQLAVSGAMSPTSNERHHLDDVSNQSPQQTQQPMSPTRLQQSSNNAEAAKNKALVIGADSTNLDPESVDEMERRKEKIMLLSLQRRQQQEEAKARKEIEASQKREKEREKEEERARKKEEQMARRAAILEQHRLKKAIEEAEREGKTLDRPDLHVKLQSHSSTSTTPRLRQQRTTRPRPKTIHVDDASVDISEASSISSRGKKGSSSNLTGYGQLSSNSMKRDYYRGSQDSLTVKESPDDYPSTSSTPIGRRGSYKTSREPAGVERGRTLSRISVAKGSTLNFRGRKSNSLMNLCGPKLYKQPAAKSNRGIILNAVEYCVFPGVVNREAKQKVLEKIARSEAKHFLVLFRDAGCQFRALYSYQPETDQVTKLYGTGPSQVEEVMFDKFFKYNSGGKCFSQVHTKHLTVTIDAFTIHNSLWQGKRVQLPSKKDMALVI

Target: HA-Msps (minispindles, Msps) (Drosophila) (UniProt Q9VEZ3)
Assay: co-IP

- binding: binds
Substance: Patronin (endogenous) (from UniProt A1ZAU8 1-1630)
